# Values from PubChem BioAssay AID504793 (Drosophila RNAi Screening Center, 2011)
# Purpose: 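Knock-downs allowing continued mitosis even though DNA is damaged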 (primary screen)
# System: Drosophila S2R+ cells
# Reagents: long dsRNA against Drosophila genes, about 0.25 µg dsRNA per well
# Time to read-out: 4 days of dsRNA, then 4 hours of drug before read-out
# Conditions: doxorubicin 0.5 µM for 4 hours to cause double-strand breaks, in cells also given a low, harmless dose of dsRNA against nbs to sensitise the assay
# Detection: 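Mitotic index as the number of phospho-histone H3-positive cells in each well following doxorubicin, given as raw counts without normalisation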
# Reading the numbers: mitotic cells: higher = more cells in mitosis, weaker G2 arrest
# Active means: 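a call needs confirmation in secondary tests, with other dsRNAs and a check of mitotic timing without damage, not just a high primary count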
# Meaning of the calls: active = confirmed in follow-up tests; inactive = not confirmed
# In all, the deposit lists about 23,000 reagents; below is an unselected part of those with a known target gene and a result. Of all reagents, 62 (0.27%) were called active. 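Calls come from follow-up tests whose scores are not deposited, so confirmed genes may have low counts here; counts are not normalised per plate.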 Raw values vary from plate to plate and are shown uncorrected. Reagents against one gene are numbered here. A plus sign joins genes that one reagent is predicted to hit.
gene,dsRNA no.,"mitotic cells, replicate 1",Outcome
Uba3,1,2,inactive
lush,1,12,inactive
ths,1,23,inactive
ths,2,8,inactive
ana,1,3,inactive
ana,2,5,inactive
CG13066,1,6,inactive
CG30431,1,2,inactive
CG30431,2,11,inactive
CG10375,1,9,inactive
Desat2,1,6,inactive
Desat2,2,8,inactive
HisRS,1,10,inactive
CG42380 + CG42379 + PIG-M + 1 more,1,3,inactive
CG42380 + CG42379 + PIG-M + 1 more,2,6,inactive
CG9308,1,7,inactive
CG9308,2,6,inactive
Kap-alpha1,1,6,inactive
Myd88,1,6,inactive
Myd88,2,3,inactive
CG9993,1,13,inactive
CG31556 (retired record),1,7,inactive
CG31556 (retired record),2,3,inactive
CG31556 (retired record),3,4,inactive
CG14322,1,8,inactive
CG15025,1,7,inactive
CG15201,1,18,inactive
Ucp4B,1,8,inactive
CG12253,1,7,inactive
CG12253,2,6,inactive
CG1789,1,5,inactive
CG1789,2,5,inactive
l(2)gl,1,7,inactive
l(2)gl,2,4,inactive
CG30355,1,13,inactive
Pdss2,1,3,inactive
vimar,1,4,inactive
Jig,1,11,inactive
CG13492,1,4,inactive
Pez,1,3,inactive
Pez,2,6,inactive
dtr,1,12,inactive
Gr22c,1,9,inactive
Gr22c,2,4,inactive
out,1,7,inactive
out,2,12,inactive
Tsp42Eq,1,2,inactive
CG14230,1,7,inactive
CG14230,2,2,inactive
Aptx,1,9,inactive
Aptx,2,13,inactive
magu,1,3,inactive
hang,1,11,inactive
hang,2,7,inactive
CG14607,1,2,inactive
Pgant8,1,6,inactive
Pgant8,2,13,inactive
trc,1,3,inactive
trc,2,6,inactive
Rsod,1,13,inactive
Eig71Eg,1,2,inactive
cbc,1,4,inactive
spin,1,10,inactive
spin,2,4,inactive
Pbgs,1,5,inactive
sgll,1,7,inactive
Pex12,1,5,inactive
Pex12,2,4,inactive
CG11498,1,15,inactive
CG5435,1,5,inactive
CG13748,1,7,inactive
Nup43,1,12,inactive
ndl,1,6,inactive
ndl,2,4,inactive
CG15296,1,11,inactive
CG15296,2,6,inactive

Reformatted: entries from further up
CG13492
- mitotic cells, replicate 1: 4
- Outcome: inactive

Pez #1
- mitotic cells, replicate 1: 3
- Outcome: inactive

Pez #2
- mitotic cells, replicate 1: 6
- Outcome: inactive

dtr
- mitotic cells, replicate 1: 12
- Outcome: inactive

Gr22c #1
- mitotic cells, replicate 1: 9
- Outcome: inactive

Gr22c #2
- mitotic cells, replicate 1: 4
- Outcome: inactive

out #1
- mitotic cells, replicate 1: 7
- Outcome: inactive

out #2
- mitotic cells, replicate 1: 12
- Outcome: inactive

Tsp42Eq
- mitotic cells, replicate 1: 2
- Outcome: inactive

CG14230 #1
- mitotic cells, replicate 1: 7
- Outcome: inactive
